We go through two molecules from PMC6820788, “Structural insights of human mitofusin-2 into mitochondrial fusion and CMT2A onset” (Nature Communications, 2019).

Results are given in words; binding and its absence hold for the method and conditions named.

In test [1] the target is MFN2IM (modified human MFN2 construct with deletions of residues 1–21 and 401–705) (human) (UniProt O95140). Kind of test: condition: only nucleotide-free or loaded with GDP, GTPγS or GMPPNP (50 μM protein); SEC-RALS; analytical gel filtration coupled to RALS; 50 μM protein nucleotide-free or with 500 μM GDP, GTPγS or GMPPNP; 20 mM HEPES pH 7.5, 150 mM KCl, 5 mM MgCl2, 1 mM DTT; both purified.

Another test concerns the target MFN2IM(V273D) (human) (UniProt O95140). Description: SEC-RALS; analytical gel filtration (Superdex 200 10/300) coupled to right-angle light scattering; 50 μM protein incubated with 500 μM GTP or GDP∙BeF3− for 2 h at room temperature; 20 mM HEPES pH 7.5, 150 mM KCl, 5 mM MgCl2, 1 mM DTT; both purified.

B1: MFN2IM (modified human MFN2 construct with deletions of residues 1–21 and 401–705) (domain or fragment, UniProt O95140 22-757, looked up)
chain: AEVNASPLKHFVTAKKKINGIFEQLGAYIQESATFLEDTYRNAELDPVTTEEQVLDVKGYLSKVRGISEVLARRHMKVAFFGRTSNGKSTVINAMLWDKVLPSGIGHTTNCFLRVEGTDGHEAFLLTEGSEEKRSAKTVNQLAHALHQDKQLHAGSLVSVMWPNSKCPLLKDDLVLMDSPGIDVTTELDSWIDKFCLDADVFVLVANSESTLMQTEKHFFHKVSERLSRPNIFILNNRWDASASEPEYMEEVRRQHMERCTSFLVDELGVVDRSQAGDRIFFVSAKEVLNARIQKAQGMPEGGGALAEGFQVRMFEFQNFERRFEECISQSAVKTKFEQHTVRAKQIAEAVRLIMDSLHMAAREQQVYCEEMREERQDRTRENLEQEIAAMNKKIEVLDSLQSKAKLLRNKAGWLDSELNMFTHQYLQPSR
notes: human mitofusin-2 (MFN2) with residues 1-21 and 401-705 deleted (MFN2IM); Theoretical molecular mass 52.6 kDa; also called truncated human MFN2; wild-type MFN2IM; source: E. coli Rosetta (DE3), purified (Ni-NTA, His6-tag removed with PreScission protease, second Ni-NTA, gel filtration); not shown: His6, N-terminal, cleaved
For the molecule B1, the binding result in test [1] is on record as “no binding”.

B2: MFN2IM(V273D) (domain or fragment, UniProt O95140)
chain: AEVNASPLKHFVTAKKKINGIFEQLGAYIQESATFLEDTYRNAELDPVTTEEQVLDVKGYLSKVRGISEVLARRHMKVAFFGRTSNGKSTVINAMLWDKVLPSGIGHTTNCFLRVEGTDGHEAFLLTEGSEEKRSAKTVNQLAHALHQDKQLHAGSLVSVMWPNSKCPLLKDDLVLMDSPGIDVTTELDSWIDKFCLDADVFVLVANSESTLMQTEKHFFHKVSERLSRPNIFILNNRWDASASEPEYMEEDRRQHMERCTSFLVDELGVVDRSQAGDRIFFVSAKEVLNARIQKAQGMPEGGGALAEGFQVRMFEFQNFERRFEECISQSAVKTKFEQHTVRAKQIAEAVRLIMDSLHMAAREQQVYCEEMREERQDRTRENLEQEIAAMNKKIEVLDSLQSKAKLLRNKAGWLDSELNMFTHQYLQPSR
For B2, in the test with MFN2IM(V273D) (human), the binding entry is “no binding (tested: 50 μM protein)”.
